# Experimental data from PubChem BioAssay AID1347426 (Functional Genomics Laboratory (NCATS/FGL), 2020).
# Screen size: about 31,000 sequences; about 1,400 (4.5%) were called active.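 How the source made its calls: active means median seed-adjusted z-score above 1 or below -1; inactive means the rest.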 Some of the results follow.
# Experiment: Novel Modifiers of Survival Motor Neuron (SMN) Protein: Gene Identification via Genome-wide siRNA Screen
# Details: HEK293T SMN2-luciferase reporter, siRNA knockdown, 72 h; actives lie on both sides
# From the text: Spinal muscular atrophy (SMA) is the most common neuromuscular autosomal recessive disorder and one of the leading genetic causes of infant death. SMA results from mutations inducing loss of function or deletion in the survival of motor neuron-1 gene (SMN1), leading to deficiency of the survival motor neuron (SMN) protein. Although a second nearly identical gene, SMN2, is retained in humans, its expression primarily produces an aberrantly spliced isoform that is largely unstable and quickly degraded. We performed a genome-wide RNAi screen using a cell-based reporter assay to identify genes and pathways that modulate SMN protein stability. The screen identified over 200 genes that led to the greatest increase or decrease in luciferase expression.
# Using HEK293T cells stably expressing a luciferase reporter that combines the promoter and splicing based cassettes in tandem with the major portion of the native SMN2 cDNA with luciferase, we performed a genome-wide RNAi screen to identify modulators of SMN protein levels. Luciferase is expressed when full-length SMN protein is generated with luminescence signal proportional to SMN protein levels. Our luciferase-based reporter assay was used to screen Ambion Silencer Select Human Druggable Genome siRNA library (10418 genes, 3 unique siRNAs per gene) using lipid-based reverse transfection.
# Briefly, 1 pmol of each siRNA was spotted to a well of a 384-well plate (Corning, Corning, NY) and 20 microL of serum-free DMEM containing […] of Lipofectamine RNAiMax (Life Technologies, Carlsbad, CA) was then added to each well. Transfected cells were maintained at 37 degrees C in 5% CO2 for 72 hours, 20 microL of ONE-Glo Reagent (Promega) was added to wells for luciferase quantification. Raw luminescence reads were normalized to Ambion(R) Silencer(R) Negative Control #2 siRNA, then log10 transformed. A robust statistical measure of median absolute deviation (MAD) to standardize siRNA activities from each screen. Common Seed Analysis was used to help prioritize clean hits as opposed to those appearing to arise from seed based off-target effects. Candidate modulators were defined as the genes having a MAD score greater than 1.0 or less than -1.0.
row,Sequence,median seed-adjusted z-score
1,CCAACAGACAGGAACCUAUTT against PYCRL,inactive: 0.498
2,GCAUGCCUGUGUGACAUCATT against NGFR,inactive: -0.0846
3,GGAUUACGCACAAACGGCATT against SLC16A12,inactive: 0.0219
4,CAAUAGAGGUUAUGCGUUUTT against SYNCRIP,inactive: -0.192
5,GUAUAACCAGAGACUCUUUTT against ARHGAP4,inactive: 0.784
6,ACUGCUAAGUUAUCCACUATT against UBE2E3,inactive: -0.0585
7,GUACGUUGUAUGUUAAACATT against SLC12A2,inactive: -0.4
8,CUUCCAAUCUGGAUUCAAUTT against IL6,inactive: -0.436
9,GGAGGAAACUUCAACUUGUTT against PHF20L1,inactive: 0
10,GAAGAGUUGUCGUCUAUAATT against TRIB2,inactive: 0
11,CGAGACUCAUCUACCUGAATT against LRRC32,inactive: 0.0464
12,GGAAAAAGAUCAUAAUAGUTT against SLU7,inactive: -0.97
13,GGAUAGUUUUGUAAAAUCUTT against NFIB,inactive: 0.1
14,GCCUAGACAUCAUCACCAATT against TRIT1,inactive: 0.794
15,GUAUUGGAAUUACUAUUGATT against ELP3,inactive: 0.321
16,GCCUAUUCAACAACGGAUATT against PDE5A,inactive: 0
17,UAAUGUCCUGGUUCAGAAATT against SFXN5,inactive: 0
18,CCAACCGAAUGAUUGCAGATT against KIF6,inactive: -0.0396
19,GAUUAGAUUGGGUAAAGGATT against APEX1,inactive: -0.312
20,GCAAUAACCGUCUAAUAAATT against PHGDH,inactive: 0.108
21,CCCUCGUCAUCAUCAGCAUTT against CLDN4,inactive: -0.0241
22,GAGUCUAGAUCUUCAGAUATT against ZNF280D,inactive: 0.374
23,AAUUCGUUUUGACCACAUATT against XBP1,inactive: 0.387
24,CAGUGCAUCUAGUGGAUUATT against GABRR3,inactive: 0.368
25,CUUCCCAGGUGGAGCCAAATT against UNQ2541,inactive: -0.954
26,GCGUUGGAGUGCUACAACATT against PRKDC,inactive: -0.485
27,GCGUAGCUCAAGGAUCAAATT against MAP3K1,inactive: -0.217

# Fetched one by one from the entries so far (2):
row,Sequence,median seed-adjusted z-score
7,GUACGUUGUAUGUUAAACATT against SLC12A2,inactive: -0.4
23,AAUUCGUUUUGACCACAUATT against XBP1,inactive: 0.387

# Reformatted: entries from further up
row	Sequence	median seed-adjusted z-score
13	GGAUAGUUUUGUAAAAUCUTT against NFIB	inactive: 0.1
23	AAUUCGUUUUGACCACAUATT against XBP1	inactive: 0.387

# Remaining list, next part.

row,Sequence,median seed-adjusted z-score
1,AGAUCCUGCAGGUCAAGUATT against CACNA2D2,inactive: -0.702
2,AGACCAAAGUCCAUCGGAATT against SYT2,inactive: 0.243
3,CCGCGGAUAUUGACAGCUATT against MYH7B,inactive: -0.0322
4,GCAAAUCAUGAUUGACAUATT against IFNGR1,inactive: -0.279
5,GGUUCAAUCAACUUAGAAATT against MS4A12,inactive: -0.881
6,UAUCAAUUCCGACAUCGAATT against WNT5A,inactive: 0.651
7,GGUGGAUGCUCAAUCCAGATT against FOXO1,inactive: 0.0591
8,UGAUGAACUCGGAAAUGCATT against PPAPDC1A,inactive: 0.634
9,CUAUGGUCUCUACCGAAAATT against HDAC1,inactive: -0.61
10,GGUUAUCAAUGACGAGCAATT against EP400,active: 1.83
11,GGCUACAUCUAGAAGGCAATT against LRG1,inactive: 0.668
12,GCUUUUGAAAUGACAUUAATT against ECHS1,inactive: 0.0273
13,GGAGUCAUAAUGAACAUAATT against SLC13A5,inactive: 0
14,GGAUCUUCGUAGACUAAAATT against ANKIB1,inactive: -0.00367
15,GCAUCCUAGACAUUGACAATT against TIMM44,inactive: -0.569
16,CACCUGCACCUGUUUAGAATT against F10,inactive: -0.0033
17,CAUAUGCGAUGGUGACCUATT against RFC1,inactive: 0
18,UCUUAGCUGUGAGAGAUAATT against PLUNC,inactive: 0.254
19,GACCUAUAGAAGAUGCUAATT against C3orf64,inactive: 0.0771
20,CCGUAUGAAUGUAACGUAUTT against ZNF658,inactive: 0.091
21,GCAUGAGAGAUGCUUUGGATT against KRT35,inactive: -0.1
22,GAAUCAGAAUUGUACCUGATT against KRT38,inactive: 0.0884
23,AGUUGUUGGAAUGACCUUATT against CLEC5A,active: -1.07
24,CGCUUUGCCUACACGAAUATT against EBI2,inactive: -0.312
25,GAAUCAGCUCGAUUUCCUUTT against GP5,inactive: -0.286
26,UUCCCAUAUUUAUUCGGACTT against AMH,inactive: -0.255
27,GAGAGAUAUUGAUCGACUUTT against ARG2,inactive: -0.796
